From publication PMC5354814, “In silico and in vitro drug screening identifies new therapeutic approaches for Ewing sarcoma” (Oncotarget, 2016)

Key:
Experiment in all cases: In vitro high-throughput screen of FDA-approved drug library (CellTiter-Glo)
Format in all cases: cell-based
A673 = conditions: Homo sapiens, 1 μmol/L drug, 72 hours
Experimental: (§1) We screened, in parallel to the three computational approaches, an FDA-approved drug library containing 2,316 drugs (1,536 unique chemical entities). […] The drug screening study protocol employed is summarized in Supplementary Table S1.
(§2) Cells were grown to 80–90% confluence, harvested and aliquoted into 384-well plates (black μClear microplates, Greiner bio-one, Germany) at concentrations of 750–1,500 cells per well in a total volume of 25 μl/well using a Matrix Wellmate (Thermo Scientific). Cells were cultured for 72 hours in a 5% CO2 atmosphere at 37°C. Aliquots of 25 μl CellTiter-Glo® Reagent (Promega) were added directly to each well, the plates were incubated at room temperature for 20 min and the luminescence signal was measured according to the manufacturer's protocol. The measurements were made using Infinite® M200 Pro plate reader (Tecan, Switzerland). […] Data were normalized to percentage inhibition. […]
(§3) (A) Color scale for drug inhibition values. […]

Hs 919.T. = conditions: 1 μmol/L drug, 72 hours, control cell line
Experimental: as §1, §2, §3

RD-ES = conditions: 1 μmol/L drug, 72 hours
Experimental: as §1, §2, §3

SK-ES-1 = conditions: Homo sapiens, SK-ES1; 1 μmol/L drug, 72 hours
Experimental: as §1, §2, §3

`O=C(CCCCCCC(=O)Nc1ccccc1)NO` [Vorinostat] showed an inhibition at 1 µM (A673) of less than 50%, an inhibition at 1 µM (Hs 919.T.) of less than 50% and an inhibition at 1 µM (RD-ES) of 61%. For the same molecule, the inhibition at 1 µM (SK-ES-1) was less than 50%.
